# Test results as given in PubChem BioAssay AID504594 (Broad Institute, 2011).
# Values joined by “and” are separate entries in the source; they are usually repeats but may differ in a detail not shown here. Equal entries are not always repeated. Screen size: about 2,000 compounds; fewer than 10 were called active.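 Rule for the calls: active = growth inhibition of at least 75% in every replicate, which also brings the mean inhibition to 75% or more; inconclusive = mean inhibition 75% or more but some replicate under 75%; inactive = the rest.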 The list shows a part of the results.
# Test: growth inhibition of PfHsp90-dependent yeast, primary screen, antimalarial PfHsp90 inhibitor project, S. cerevisiae, BacTiter-Glo luminescence (AID 504594);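 note: 0% = DMSO neutral control wells and 100% = 20 µM radicicol control wells; higher value means stronger growth inhibition because the sign is flipped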
# Details: S. cerevisiae expressing PfHsp90, BacTiter-Glo growth, 48 h; at 9.4 µM; active compounds read high
row,SMILES,growth inhibition
1,CN(C)C(=O)Oc1ccc[n+](C)c1,inactive: -2.14%
2,CC(=O)CCc1c(C)c2cccc(C)c2[nH]c1=O,inactive: -14%
3,COc1ccccc1OCC(O)COC(N)=O (stereo not given),inactive: 13.2%
4,COc1ccc2[nH]c(=O)c(CNC3CCCCC3)cc2c1,inactive: -29%
5,COc1cc2c(cc1OC)C(Cc1ccc(O)cc1)N(C)CC2 (stereo not given),inactive: 2.11%
6,O=C(c1ccc(O)cc1)c1ccc(O)cc1O,inactive: 3.52%
7,COc1ccccc1C(=O)c1cc2ccc(O)cc2oc1=O,inactive: -16.8%
8,Cc1ccc(S(=O)(=O)Oc2ccccc2/C=N/N=C(N)N)cc1,inactive: 9.9%
9,CCc1cc2c(=O)c(-c3ccc(F)cc3)c(C)oc2cc1OCC(=O)O,inactive: -0.0935%
10,O=C(O)CP(=O)(O)O,inactive: -14%
11,CNc1nc(N(C)C)nc(N(C)C)n1,inactive: -1.75%
12,COc1ccc(C(=O)/C=C/c2cc(C(=O)O)cc3c2OCOC3)c(O)c1,inactive: 0.0828%
13,Cc1cccc(-c2ncc(CN3CCN(CC(C)C)C(CCO)C3)cn2)c1 (stereo not given),inactive: 1.96%
14,COc1ccc(Cc2noc(CN(C)CC3(N4CCOCC4)CCCCC3)n2)cc1OC,inactive: 8.87%
15,COC1CCN(Cc2cn(Cc3ccccc3)nc2-c2cc3ccccc3o2)CC1,inactive: 3.22%
16,COc1ccc(C2C3=C(OC(C)=O)c4ccccc4C3=Nc3c2c(=O)n(C)c(=O)n3C)cc1 (stereo not given),inactive: -5.34%
17,O=C1NC(=O)C(c2ccccc2)(c2ccccc2)N1,inactive: 0.478% and inactive: 3.13%
18,Cc1ccccc1-c1nn(-c2ccc(F)cc2F)cc1CNCCN(C)C,inactive: -12.6%
19,Cc1ccc2c(c1)C(O)(C1COC(C)(C)CC1=O)C(=O)N2C (stereo not given),inactive: 0.262%
20,O=C1NCC2=C1C(c1ccccc1)Nc1ccccc1N2 (stereo not given),inactive: 6.48%
21,c1ccc(CNc2ncnc3nc[nH]c23)cc1,inactive: -9.92%
22,CC(C)Cc1nc(NCCN2CCOCC2)c(C#N)c2c1COC(C)(C)C2,inactive: 4.14%
23,O=c1nc2cccc3c2=c(/c1=C(\O)c1ccccc1)c1ccccc1c3=O,inactive: -23.6%
24,Fc1ccc(-c2cc(-c3ccccc3)nc(-n3cccn3)n2)cc1,inactive: 41%
25,CC(=O)OCC[N+](C)(C)C,inactive: 5.1% and inactive: -0.781%

# Structures listed so far with a COOH group:
row,SMILES,growth inhibition
9,CCc1cc2c(=O)c(-c3ccc(F)cc3)c(C)oc2cc1OCC(=O)O,inactive: -0.0935%
10,O=C(O)CP(=O)(O)O,inactive: -14%
12,COc1ccc(C(=O)/C=C/c2cc(C(=O)O)cc3c2OCOC3)c(O)c1,inactive: 0.0828%

# Remaining list, next part:

row,SMILES,growth inhibition
1,Cn1c(=O)c(C(=O)NCCO)c(O)c2ccccc21,inactive: 6.66%
2,CC[n+]1ccc2cc(OC)c(OC)cc2c1Cc1ccc(OC)c(OC)c1,inactive: -1.65%
3,O=C(/C=C/c1ccc2c(c1)OCO2)c1ccccn1,inactive: 13.3%
4,CN1C(=O)C(O)(CC(=O)/C=C/C=C/c2ccccc2)c2ccccc21 (stereo not given),inactive: 3.4%
5,Cn1cc(C2N3CC4(C)CN2CC(C)(C3)C4=O)c2ccccc21 (stereo not given),inactive: -6.17%
6,OCCN(CCO)c1ccc2ccccc2c1,inactive: -5.34%
7,CN(C)[C@@H]1C(=O)C(C(N)=O)=C(O)[C@@]2(O)C(=O)C3=C(O)c4c(O)ccc(Cl)c4[C@@H](O)[C@H]3C[C@@H]12,inactive: -2.79%
8,CC(C)(C)C(=O)NC(=S)NNC(=O)c1ccncc1,inactive: 1.34%
9,C[C@H]1O[C@H]1P(=O)(O)O,inactive: -1.34%
10,COc1ccc2[nH]cc(CCNC(=O)C3CCCNC3=O)c2c1 (stereo not given),inactive: -3.06%
11,CCOC(=O)c1ccc(N2C(=O)C(CC(N)=O)N(CCc3ccc(OC)c(OC)c3)C2=S)cc1 (stereo not given),inactive: 6.32%
12,CC1COc2c(N3CCN(C)CC3)c(F)cc3c(=O)c(C(=O)O)cn1c23 (stereo not given),inactive: 0.903%
13,CCN(CC)C(=O)c1sc(NC(=O)c2c(OC)cccc2OC)c(C#N)c1C,inactive: 4.33%
14,O=C(O)/C=C/c1cnc[nH]1,inactive: -3%
15,NCc1ccccc1COc1ccccc1,inactive: -10.1%
16,COCCCNc1nc2c([nH]1)c(=O)[nH]c(=O)n2C,inactive: -6.16%
17,CC12CN3CC(C)(CN(C1)C3c1ccc(Cl)cc1Cl)C2=O (stereo not given),inactive: -10.6%
18,Cc1cc(O)c(C(=O)Cc2csc(C)n2)c(O)c1,inactive: -6.85%
19,O=c1[nH]cnc2[nH]ncc12,inactive: 4.2%
20,CN(C)C(=O)Oc1cccc([N+](C)(C)C)c1,inactive: -4.89% and inactive: 1.83%
21,CN1CCC(OC(c2ccccc2)c2ccccc2)CC1,inactive: -13.4%
22,NC(CO)C(=O)NNCc1ccc(O)c(O)c1O (stereo not given),inactive: 23%
23,COc1ccc2cc(C(=O)OC(C)C)sc(=O)c2c1OC,inactive: -7.81%
24,CN(C)CCCN1c2ccccc2CCc2ccccc21,inactive: 0.476%
25,COc1cccc(OCC(O)CO)c1 (stereo not given),inactive: -3.88%

# Gathered by group, those above containing a Cl atom.
row,SMILES,growth inhibition
7,CN(C)[C@@H]1C(=O)C(C(N)=O)=C(O)[C@@]2(O)C(=O)C3=C(O)c4c(O)ccc(Cl)c4[C@@H](O)[C@H]3C[C@@H]12,inactive: -2.79%
17,CC12CN3CC(C)(CN(C1)C3c1ccc(Cl)cc1Cl)C2=O (stereo not given),inactive: -10.6%

# Next part

row,SMILES,growth inhibition
1,CCOC(=O)N1c2ccccc2C=CC1OCC (stereo not given),inactive: -5.21%
2,CC(C)CN1CCN(Cc2cccn2-c2ccccn2)CC1CCO (stereo not given),inactive: 7.76%
3,CCC(=O)c1ccc(OCc2ccc(C(=O)OC)cc2)cc1,inactive: -0.292%
4,COc1cc(/C=C/C(=O)CC(=O)/C=C/c2ccc(O)c(OC)c2)ccc1O,inactive: 0.395%
5,CC1(C)C(C=C(Cl)Cl)C1C(=O)N1CCN(Cc2ccccc2)CC1 (stereo not given),inactive: 3.99%
6,CNC(=O)Oc1ccc2c(c1)[C@]1(C)CCN(C)[C@@H]1N2C,inactive: -18.9%
7,CC1(C)S[C@@H]2[C@H](NC(=O)Cc3ccccc3)C(=O)N2[C@H]1C(=O)O,inactive: 13.9%
8,Cc1cc(=O)c2c(O)c(O)ccc2o1,inactive: -4.06%
9,CCCCCCCC(=O)OCC(=O)[C@@]1(O)CC[C@H]2[C@@H]3CCC4=CC(=O)CC[C@]4(C)[C@H]3[C@@H](O)C[C@@]21C,inactive: 12.2%
10,COc1cc(OC)c(-c2nc3cnccc3n2C)cc1OC,inactive: -1.54%
11,O=C1CC(c2ccc(F)cc2)Cc2nc(NCC3CCCO3)ncc21 (stereo not given),inactive: 6.43%
12,CNCCCN1c2ccccc2CCc2ccccc21,inactive: 5.11%
13,C[n+]1ccccc1/C=N/O,inactive: 18.1% and inactive: 2.57%
14,COc1ccc(CN2CCCCC2C(=O)Nc2ccc(OC)c(OCC(C)C)c2)cc1OC (stereo not given),inactive: 0.843%
15,Cc1cccc(Nc2ccccc2C(=O)O)c1C,inactive: -9.21%
16,CCC(C)n1ncn(-c2ccc(N3CCN(c4ccc(OCC5COC(Cn6cncn6)(c6ccc(Cl)cc6Cl)O5)cc4)CC3)cc2)c1=O (stereo not given),inactive: -1.74%
17,CCOc1ncnc2c1[nH]c1ccccc12,inactive: -0.202%
18,COc1ccc(C2C3=C(CC(C)(C)CC3=O)N(C)C3=C2C(=O)CC(C)(C)C3)cc1,inactive: 5.42%
19,C#CCN(C)CCCOc1ccc(Cl)cc1Cl,inactive: -6.26%
20,Cc1c(NC(=O)c2cccs2)cccc1[N+](=O)[O-],inactive: -8.17%
21,Cc1nc2cc3ccccc3cc2c(=O)[nH]1,inactive: 3.18%
22,COc1cccc(CN2C(=O)N(C(C)C)C(N(O)C(=O)NC(C)C)C2(C)C)c1OC (stereo not given),inactive: -1.39%
23,COc1ccc2c(c1)[nH]c1c(=O)n(Cc3ccccn3)cnc12,inactive: 3.01%
24,Cn1c(=O)[nH]c(=O)c2c1nc(NCc1ccco1)n2CCCc1ccccc1,inactive: 2.13%
25,CC1(C)CC(=O)c2cnc(NC(=O)C3CCCC3)nc2C1,inactive: 0.802%

row,SMILES,growth inhibition
1,Cn1c(=O)c2c(ncn2CCO)n(C)c1=O,inactive: -6.89%
2,COc1ccc(-n2cc(CNCc3cccnc3)c(-c3cccc(F)c3)n2)cc1,inactive: -18.3%
3,Cc1ccc2c(c1)C(O)(CC(=O)/C=C/C=C/c1ccccc1)C(=O)N2 (stereo not given),inactive: -7.55%
4,COc1ccccc1OCC(=O)O,inactive: -2.4%
5,CCCCC/C=C\C[C@H](O)/C=C/c1cccc(C[C@H](O)CCCCO)n1,inactive: -18.4%
6,CCSC(SCC)[C@H](O)[C@@H](O)[C@H](O)[C@H](O)CO,inactive: -1.6%
7,Cc1ccc(NCCC(=O)c2ccccc2)cc1Cl,inactive: 9.45%
8,O=C(CCSc1ccccc1)N1CCCC1,inactive: 6.81%
9,COc1ccccc1C(CCN(Cc1ccccc1)C(C)=O)c1ccco1 (stereo not given),inactive: 0.547%
10,COc1ccc2[nH]c(=O)c(CN(C(=O)c3ccco3)C(C)C)cc2c1,inactive: 0.309%
11,CCCCNc1ccc(C(=O)OCCN(C)C)cc1,inactive: -3.14%
12,Cc1ccccc1C(=O)Nc1ccccc1C(=O)NCC(C)C,inactive: -1.12%
13,O=C(/C=C/c1ccccc1)/C=C/c1ccccc1,inactive: -3.32%
14,CC(OC(=O)c1cc(=O)[nH]c2ccccc12)C(=O)c1ccccc1 (stereo not given),inactive: 9.25%
15,Cc1cnc(C(=O)NCCc2ccc(S(=O)(=O)NC(=O)NC3CCCCC3)cc2)cn1,inactive: -1.17%
16,CCc1cc2c(=O)c(-c3nc(C)cs3)c(CCCC(=O)O)oc2cc1O,inactive: -4.53%
17,CC1(C)C2CCC1(C(=O)O)c1nc3ccccc3nc12 (stereo not given),inactive: 1.35%
18,CC(=O)SC1CC2=CC(=O)CCC2(C)C2CCC3(C)C(CCC34CCC(=O)O4)C12 (stereo not given),inactive: 4.6%
19,COC(=O)C1=C(C)NC(C)=C(C(=O)OCCN(C)Cc2ccccc2)C1c1cccc([N+](=O)[O-])c1 (stereo not given),inactive: -5.9%
20,COc1ccc(-c2nnc(-c3cc4c(ccc5ccccc54)oc3=O)o2)cc1,inactive: 11.1%
21,CC(C)CN1CC(C(=O)O)CC1=O (stereo not given),inactive: -3.33%
22,CNc1c2c(nn1C)CCCC2,inactive: -5.98%
23,COc1c2ccoc2nc2c(OC)cccc12,inactive: 0.792%
24,CC(C)=CCC(C)(C)/C=N/NC(N)=O,inactive: -2.22%
25,NCCCC(N)(C(=O)O)C(F)F (stereo not given),inactive: -9.5%
